Results deposited as PubChem BioAssay AID652272 (Drosophila RNAi Screening Center, 2013)

Purpose: 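Genome-wide knock-down search for components of Hedgehog signalling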 (primary screen)
System: Drosophila clone 8 (Cl8) cells
Reagents: long dsRNA against Drosophila genes
Detection: 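Firefly light from a Hedgehog-responsive ptc promoter reporter and Renilla reference light, both read on a plate reader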
Reading the numbers: firefly Hh reporter signal: higher = more ptc reporter light; Renilla reference signal: higher = more Renilla control light
Call rule: 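Hit when the z-score averaged over two replicates is under -2 or over +3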
Calls: active = hit: reporter lowered or raised; inactive = not a hit
The deposit covers about 21,000 reagents; below is a random part of those with a known target gene and a result. In the full data, 503 (2.4%) are marked active. 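Raw plate light values, not normalised; calls rest on replicate z-scores that were not deposited; hits include reporter decreases as well as increases.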 Names joined by + are all predicted targets of the reagent. Not stated in the record: the amount of reagent, the time to read-out.

target gene | dsRNA | firefly Hh reporter signal, replicate 1 | firefly Hh reporter signal, replicate 2 | firefly Hh reporter signal, replicate 3 | Renilla reference signal, replicate 1 | Renilla reference signal, replicate 2 | Outcome
CG6511 | DRSC10656 | 36659 | 38167 | – | 3568 | 3033 | inactive
CG12640 | DRSC17847 | 70701 | 1.53e5 | – | 2738 | 6924 | inactive
CG14352 | DRSC00382 | 1.15e5 | 88984 | – | 2386 | 2160 | inactive
CG44774 | DRSC18342 | 77929 | 1.25e5 | – | 3090 | 5827 | inactive
SWIP | DRSC19540 | 83344 | 1.75e5 | – | 2944 | 7193 | inactive
CG17198 + CG17197 | DRSC15190 | 6.96e5 | 1.60e5 | – | 33697 | 5027 | inactive
CG17198 + CG17197 | DRSC15191 | 6.04e5 | 1.17e5 | – | 27863 | 3578 | inactive
PGRP-LD + Cralbp + Pmi | DRSC09743 | 55545 | 44515 | – | 6876 | 3952 | inactive
IP3K2 | DRSC19500 | 1.11e5 | 4.50e5 | 4.44e5 | 3196 | 2931 | inactive
IP3K2 | DRSC19747 | 69041 | 2.19e5 | – | 1493 | 8682 | inactive
CG9095 | DRSC20150 | 77492 | 2.15e5 | – | 2598 | 8006 | inactive
CG33306 | DRSC01899 | 55447 | 30602 | – | 2619 | 1449 | inactive
robl | DRSC07674 | 1.11e5 | 74499 | – | 2892 | 5168 | inactive
vir | DRSC04377 | 68571 | 53504 | – | 1473 | 4837 | inactive
CG12420 | DRSC14514 | 1.36e5 | 6.19e5 | 2.17e5 | 4171 | 4155 | inactive
CG10345 | DRSC14138 | 1.02e5 | 91413 | – | 4551 | 3619 | inactive
CG15269 | DRSC01942 | 75162 | 59688 | – | 1920 | 5948 | inactive
LRP1 | DRSC07238 | 82918 | 39578 | – | 2018 | 3360 | inactive
Itgbn | DRSC03493 | 1.15e5 | 51644 | – | 3315 | 4342 | inactive
mGluR | DRSC17215 | 61062 | 1.67e5 | – | 1830 | 6871 | inactive
CG32219 | DRSC09641 | 3.27e5 | – | – | 7053 | – | inactive
RhoGAP92B | DRSC14507 | 6.47e5 | 1.04e5 | – | 31704 | 2667 | inactive
RhoGAP92B | DRSC15637 | 5.68e5 | 1.25e5 | – | 26675 | 2564 | inactive
klg | DRSC13591 | 54836 | 1.79e5 | – | 12182 | 3689 | inactive
klg | DRSC16978 | 66875 | 5.23e5 | – | 3429 | 30845 | inactive
CG14570 | DRSC11731 | 95094 | 1.05e5 | – | 3379 | 3330 | inactive
Nedd8 | DRSC02092 | 82608 | 39079 | – | 1670 | 3365 | inactive
CG14983 | DRSC08441 | 90117 | 40497 | – | 2304 | 3588 | inactive
CG15253 | DRSC01871 | 1.56e5 | 83046 | – | 4280 | 6800 | inactive
CG11353 | DRSC08182 | 1.29e5 | 76936 | – | 5611 | 3410 | inactive
CG32988 | DRSC02692 | 84117 | 45725 | – | 1745 | 3684 | inactive
yellow-g | DRSC08575 | 66672 | 34663 | – | 2048 | 3250 | inactive
CG32052 | DRSC10966 | 40577 | 61640 | 47332 | 6464 | 3072 | inactive
ric8a | DRSC18093 | 70754 | 94295 | – | 1249 | 2211 | inactive
Fam92 | DRSC02952 | 80634 | 74419 | – | 4296 | 3049 | inactive
t-Grip128 | DRSC07853 | 1.33e5 | 3.13e5 | – | 4493 | 12400 | inactive
CG14995 | DRSC08452 | 36956 | 35536 | – | 2699 | 1670 | inactive
Ssrp | DRSC04658 | 89414 | 67344 | – | 3202 | 2476 | inactive
CG8586 | DRSC07218 | 1.24e5 | 70596 | – | 5634 | 3088 | inactive
CG4338 | DRSC15564 | 77690 | 74020 | – | 3090 | 2922 | inactive
Epac | DRSC04969 | 5.86e5 | 1.11e5 | – | 4560 | 4560 | inactive
Epac | DRSC04996 | 1.12e5 | 94795 | – | 4961 | 3814 | inactive
Epac | DRSC04997 | 73133 | 34756 | – | 2112 | 2585 | inactive
qkr54B | DRSC07670 | 76421 | 59504 | – | 1928 | 4059 | inactive
CG43138 | DRSC17527 | 3.25e5 | 1.46e5 | – | 12977 | 2304 | inactive
CCHa2 | DRSC14835 | 1.73e5 | 6.40e5 | 1.52e5 | 4978 | 5360 | inactive
Ir41a | DRSC04730 | 1.43e5 | 2.04e5 | – | 3108 | 7978 | inactive
Ir41a | DRSC04875 | 97088 | 65403 | – | 1893 | 6800 | inactive
CG6497 | DRSC10654 | 1.62e5 | – | – | 4547 | 3504 | inactive
CG2519 | DRSC12312 | 1.11e5 | 56096 | – | 4330 | 2101 | inactive
PGRP-LA | DRSC10327 | 36102 | 44224 | 82880 | 2986 | 5361 | inactive
PGRP-LA | DRSC10414 | 37853 | 53238 | 73560 | 4763 | 6343 | inactive
CG33309 | DRSC01421 | 97456 | 2.26e5 | – | 2775 | 9696 | inactive
snky | DRSC09838 | 44893 | 38292 | 51488 | 3691 | 3643 | inactive
CG2854 | DRSC18595 | 75157 | 2.40e5 | – | 2069 | 8595 | inactive
boca | DRSC06408 | 95341 | 58691 | – | 2240 | 4411 | inactive
cas | DRSC12373 | 75659 | 96369 | – | 3216 | 3208 | inactive

6 entries from above, limited to “Renilla reference signal, replicate 2”.
klg [DRSC13591]	3689
klg [DRSC16978]	30845
CG14570 [DRSC11731]	3330
Nedd8 [DRSC02092]	3365
CG14983 [DRSC08441]	3588
CG15253 [DRSC01871]	6800
